No constants are given. Whether binding was seen depends on the method and setting. Some binding calls cover weakened binding; strength is not graded here.
Tests used:
recombinant ROR1 protein [1] = molecular target: T1, recombinant ROR1 protein (UniProt Q01973 30-403, limits assumed); assay: ELISA with purified protein, dilution series (FIG. 8A)
T1 construct: also called his-tagged ROR1; not shown: his tag

By UniProt entry, the sequences of proteins in these tests, tags left out. Residues count along the entry.
UniProt Q01973, residues 30-403: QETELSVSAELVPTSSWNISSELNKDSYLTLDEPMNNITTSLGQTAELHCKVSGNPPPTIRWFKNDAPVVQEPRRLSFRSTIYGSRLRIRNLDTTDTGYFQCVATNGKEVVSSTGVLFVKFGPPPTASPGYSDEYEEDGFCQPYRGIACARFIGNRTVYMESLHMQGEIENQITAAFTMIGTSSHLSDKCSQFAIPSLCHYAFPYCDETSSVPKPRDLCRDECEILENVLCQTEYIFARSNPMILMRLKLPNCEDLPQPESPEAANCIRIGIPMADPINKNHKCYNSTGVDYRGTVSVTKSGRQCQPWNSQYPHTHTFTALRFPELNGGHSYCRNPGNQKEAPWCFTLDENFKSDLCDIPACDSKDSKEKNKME

recombinant ROR1 protein [2] = molecular target: T1, recombinant ROR1 protein; assay: specificity ELISA at 3 µg/ml, HRP anti-HA detection (FIG. 9A)
recombinant ROR1 protein [3] = molecular target: T1, recombinant ROR1 protein; assay: ELISA with periplasmic extracts, OD450 (FIG. 6A)
recombinant ROR1 protein [4] = molecular target: T1, recombinant ROR1 protein; assay: ELISA with purified protein, dilution series (FIGS. 8A-8B)
recombinant ROR1 protein [5] = molecular target: T1, recombinant ROR1 protein; assay: specificity ELISA at 3 µg/ml, HRP anti-HA detection (FIGS. 9A-9B)
recombinant ROR1 protein [6] = molecular target: T1, recombinant ROR1 protein; assay: ELISA with periplasmic extracts, OD450 (FIGS. 6A-6B)
recombinant ROR1 protein [7] = molecular target: T1, recombinant ROR1 protein; assay: ELISA with purified protein, dilution series (FIG. 8B)
recombinant ROR1 protein [8] = molecular target: T1, recombinant ROR1 protein; assay: specificity ELISA at 3 µg/ml, HRP anti-HA detection (FIG. 9B)
recombinant ROR1 protein [9] = molecular target: T1, recombinant ROR1 protein; assay: ELISA with periplasmic extracts, OD450 (FIG. 6B)
PE-labeled ROR1 protein [10] = molecular target: PE-labeled ROR1 protein (UniProt Q01973); assay: flow cytometry of CAR-transduced PBMCs stained with PE-labeled ROR1 protein (FIG. 15)
PE-labeled ROR1 protein [11] = molecular target: PE-labeled ROR1 protein (UniProt Q01973); assay: flow cytometry of CAR-transduced T cells stained with ROR1 protein (FIG. 15)

B1: 5-26 (VHH)
VHH: QVQLQESGGGLVQPGGSLRLSCAASGFTLDLYAIGWFRQAPGKERERVSCISSGGSTNYAESVKGRFTISRDNGKNTVYLQMNSLKPEDTAVYYCVRSVPSCGSYYFPPRNMNYWGKGTQVTVSS
notes: Alpaca VHH from the phage library; not shown: one his tag and one HA tag at the C-terminus
- binding (recombinant ROR1 protein [1]): binds
- binding (recombinant ROR1 protein [2]): binds
- binding (recombinant ROR1 protein [3]): binds

B2: 5-09 (VHH)
VHH: QVQLQESGGGLVQPGGSLRLSCAASGFTLDDYAIGWFRQAPGKERERISCISSGGNTNYADSVKGRFTLSRDNAKNTVYLQMYSLKPEDTAVYYCTASIPSCASYYFPPRNMDYWGKGTQVTVSS
notes: also called 5-9; not shown: one his tag and one HA tag at the C-terminus
- binding (recombinant ROR1 protein [4]): binds
- binding (recombinant ROR1 protein [5]): binds
- binding (recombinant ROR1 protein [6]): binds

B3: 4-92 (VHH)
VHH: QVQLQESGGGLVQPGGSLRLSCAASGFAFSSRAMSWVRQAPGKGLEWVSDINYDGAWTYYADSVKGRFTISRDNAKNTLYLQMNSLKPEDTAVYFCTDPWSIDGWGQGTQVTVSS
notes: as for B1
- binding (recombinant ROR1 protein [7]): binds
- binding (recombinant ROR1 protein [8]): binds
- binding (recombinant ROR1 protein [9]): binds

B4: 5-95 (VHH)
VHH: QVQLQESGGGLVQPGGSLRLSCAASGFTFSTYSMTWVRQAPGKGLEWVSDINSGGSVAYYTDSVKGRFTASRDNAKNTLYLQMNSLKPEDTAVYYCYEGGYHGGSPRGHGTQVTVSS
notes: not shown: one his tag and one HA tag at the C-terminus
- binding (recombinant ROR1 protein [4]): binds
- binding (recombinant ROR1 protein [5]): binds
- binding (recombinant ROR1 protein [6]): binds

B5: hu5-26 ROR1 VHH CAR (other)
chain: QVQLVESGGGLVQPGGSLRLSCAASGFTLDLYAIGWFRQAPGKERGLVSCISSGGSTNYAESVKGRFTISRDNSKNTVYLQMNSLRSEDTAVYYCVRSVPSCGSYYFPPRNMNYWGQGTLVTVSSIEVMYPPPYLDNEKSNGTIIHVKGKHLCPSPLFPGPSKPFWVLVVVGGVLACYSLLVTVAFIIFWVKRGRKKLLYIFKQPFMRPVQTTQEEDGCSCRFPEEEEGGCELRVKFSRSADAPAYKQGQNQLYNELNLGRREEYDVLDKRRGRDPEMGGKPRRKNPQEGLYNELQKDKMAEAYSEIGMKGERRRGKGHDGLYQGLSTATKDTYDALHMQALPPR
- binding (PE-labeled ROR1 protein [10]): binds
- binding (PE-labeled ROR1 protein [11]): binds
